Values of other authors as cited in patent US20080014145A1, “ABALONE SETTLEMENT BIOASSAY FOR ANTI-SEIZURE SUBSTANCE SCREENING” (priority 2006, published 2008).
At least one compound was matched to its structure with a doubt left.

Columns and labels:
[1] = target: T1, thyroxine-binding globulin (Homo sapiens, UniProt P05543); settings: cited from earlier work
T1 sequence (P05543 21-415): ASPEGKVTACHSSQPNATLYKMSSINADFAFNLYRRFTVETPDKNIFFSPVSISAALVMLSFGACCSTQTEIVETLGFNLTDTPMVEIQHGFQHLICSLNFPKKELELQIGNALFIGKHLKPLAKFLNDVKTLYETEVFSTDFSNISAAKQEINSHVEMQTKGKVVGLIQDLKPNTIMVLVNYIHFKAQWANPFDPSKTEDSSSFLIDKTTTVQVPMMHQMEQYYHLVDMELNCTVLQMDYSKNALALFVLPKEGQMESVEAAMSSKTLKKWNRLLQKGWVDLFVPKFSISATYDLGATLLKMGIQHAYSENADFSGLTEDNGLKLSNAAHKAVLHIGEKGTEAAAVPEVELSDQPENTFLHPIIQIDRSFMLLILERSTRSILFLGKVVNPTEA

[2] = test system: Haliotis rufescens larvae; settings: in vivo; cited from earlier work

Compound	inhibition of thyroxine binding to thyroxine-binding globulin [1]	induction of larvae settlement [2]
O=C1NC(=O)C(c2ccccc2)(c2ccccc2)N1 [Diphenylhydantoin]	competitively inhibit	–
CC(=O)OCC[N+](C)(C)C [acetylcholine]	–	not able to induce
